Source: publication PMC2914225, “Fusion of GFP to the M.EcoKI DNA methyltransferase produces a new probe of Type I DNA restriction and modification enzymes” (Biochemical and Biophysical Research Communications, 2010)
Results are given in words; binding and its absence hold for the method and conditions named. Some binding calls cover weakened binding; strength is not graded here. Tags and fused reporters may be left off the sequences shown.

Experiments:
[1] = target: T1, HsdS DNA sequence-specificity subunit of M.EcoKI with enhanced green fluorescent protein fused to its C-terminus (E. coli) (UniProt P05719); assay: co-purification; HsdM and HsdS-EGFP co-expressed in E. coli BL21(DE3) and purified together by His-tag affinity, gel filtration and anion exchange chromatography
T1 sequence: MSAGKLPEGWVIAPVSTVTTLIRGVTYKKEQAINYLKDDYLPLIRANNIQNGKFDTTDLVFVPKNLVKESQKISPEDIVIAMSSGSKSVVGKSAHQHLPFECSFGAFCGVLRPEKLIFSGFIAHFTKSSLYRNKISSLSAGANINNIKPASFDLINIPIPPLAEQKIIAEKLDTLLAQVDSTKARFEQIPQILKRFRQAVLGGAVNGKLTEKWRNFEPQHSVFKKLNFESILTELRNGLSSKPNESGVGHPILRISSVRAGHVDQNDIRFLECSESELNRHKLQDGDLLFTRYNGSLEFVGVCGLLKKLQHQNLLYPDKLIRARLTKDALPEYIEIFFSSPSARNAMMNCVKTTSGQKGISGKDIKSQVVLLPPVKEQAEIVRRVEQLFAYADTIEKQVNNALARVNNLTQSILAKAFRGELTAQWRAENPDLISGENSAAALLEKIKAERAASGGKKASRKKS

[2] = target: T2, GFP-MTase (M.EcoKI DNA methyltransferase, M2S1 form, with enhanced green fluorescent protein fused to the C-terminus of HsdS) (E. coli) (UniProt P08957+P05719); assay: FRET or BRET; time-resolved fluorescence decay of the GFP donor (time correlated single photon counting), 1:1 mixtures of labelled ocr with GFP-MTase, excitation at 405 nm, emission at 510 nm, magic angle; both purified
T2 sequence 1: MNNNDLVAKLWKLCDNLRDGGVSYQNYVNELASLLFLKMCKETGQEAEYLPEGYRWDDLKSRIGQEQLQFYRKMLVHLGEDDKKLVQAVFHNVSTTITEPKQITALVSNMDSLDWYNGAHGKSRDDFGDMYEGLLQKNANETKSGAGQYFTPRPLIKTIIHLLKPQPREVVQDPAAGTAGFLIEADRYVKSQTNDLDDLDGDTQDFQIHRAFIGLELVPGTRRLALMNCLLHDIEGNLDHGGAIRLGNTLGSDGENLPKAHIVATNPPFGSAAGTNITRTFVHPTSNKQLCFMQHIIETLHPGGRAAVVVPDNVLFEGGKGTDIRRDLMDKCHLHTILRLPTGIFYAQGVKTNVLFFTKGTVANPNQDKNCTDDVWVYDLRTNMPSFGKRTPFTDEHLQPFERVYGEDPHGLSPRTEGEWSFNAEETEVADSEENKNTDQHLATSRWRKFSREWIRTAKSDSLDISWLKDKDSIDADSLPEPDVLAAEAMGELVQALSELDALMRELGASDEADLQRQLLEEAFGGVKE
T2 sequence 2: T1 sequence

[3] = target: T2, GFP-MTase (M.EcoKI DNA methyltransferase, M2S1 form, with enhanced green fluorescent protein fused to the C-terminus of HsdS) (E. coli); assay: FRET or BRET; steady state fluorescence emission scans, 500 nM GFP-MTase (donor) with 500 nM Dylight549-labelled mutant ocr (acceptor), excitation at 395 nm; 20 mM Tris-HCl pH 8.0, 6 mM MgCl2, 7 mM 2-mercaptoethanol; both purified

B1: HsdM modification subunit of M.EcoKI (enzyme, UniProt P08957 1-529)
chain: T2 sequence 1
[1]
  binding: binds

B2: Dylight549-labelled ocr E117C mutant protein (natural protein, phage T7, UniProt P03775 1-117, looked up)
chain: MAMSNMTYNNVFDHAYEMLKENIRYDDIRDTDDLHDAIHMAADNAVPHYYADIFSVMASEGIDLEFEDSGLMPDTKDVIRILQARIYEQLTIDLWEDAEDLLNEYLEEVEEYEEDEC
modifications: Dylight549 maleimide on the introduced cysteine at 117 (labelling level 86.3%)
notes: gene 0.3 protein, ocr, from phage T7; one cysteine and so one acceptor label in each subunit; also called E117C ocr; E117E (as printed once); source: site directed mutagenesis and protein purification as described previously [17]
[2]
  binding: binds
[3]
  binding: binds
